Results are given in words; binding and its absence hold for the method and conditions named. Some binding calls cover weakened binding; strength is not graded here. Tags and fused reporters may be left off the sequences shown.
What was measured:
[1] = molecular target: FAM19A5 protein in the blood of marmoset monkeys (marmoset); experiment: sandwich ELISA, His-TEV-LRRC4B coated as capture, HRP-conjugated anti-FAM19A5 antibody as detector
[2] = molecular target: FAM19A5 protein in human peripheral blood (human) (UniProt Q7Z5A7); experiment: as above
[3] = molecular target: FAM19A5 protein in the blood of cynomolgus monkeys (cynomolgus monkey); experiment: as above
[4] = molecular target: FAM19A5 protein in the blood of naive rats (rat) (UniProt M0R7X9); experiment: as above
[5] = molecular target: FAM19A5 protein in the blood of naive wild-type mice (mouse) (UniProt Q91WE9); experiment: sandwich ELISA, His-TEV-LRRC4B coated as capture, HRP-conjugated anti-FAM19A5 antibody as detector; no signal in FAM19A5 knockout blood

Sequences of proteins named here, by UniProt entry; tags and fusion partners are left off. Residues count along the entry.
UniProt Q7Z5A7, residues 44-132: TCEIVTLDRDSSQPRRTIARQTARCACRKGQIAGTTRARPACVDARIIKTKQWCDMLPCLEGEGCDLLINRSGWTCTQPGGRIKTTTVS
UniProt M0R7X9, residues 44-132: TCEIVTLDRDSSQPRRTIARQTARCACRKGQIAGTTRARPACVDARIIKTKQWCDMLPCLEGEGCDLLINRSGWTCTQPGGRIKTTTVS
UniProt Q91WE9, residues 44-132: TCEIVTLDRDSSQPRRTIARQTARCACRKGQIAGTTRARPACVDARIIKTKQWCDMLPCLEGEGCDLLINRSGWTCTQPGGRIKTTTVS

Measured: binding

B1: LRRC4B peptide fragment conjugated to a His tag Tobacco Etch Virus (TEV) protease sequence (protein, UniProt Q9NT99 453-576, looked up, not shown: small tags and cut ends)
chain: VSAVDPVAAGGTGSGGGGPGGSGGVGGGSGGYTYFTTVTVETLETQPGEEALQPRGTEKEPPGPTTDGVWGGGRPGDAAGPASSSTTAPAPRSSRPTEKAFTVPITDVTENALKDLDDVMKTTK
binds: all assays above

— US20240175880A1
